Data as given in PubChem BioAssay AID1159584 (Peter MacCallum Cancer Centre, 2016)

Purpose: 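Knock-downs that harm CDH1-null cells more than parental MCF10A cells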 (primary screen)
System: human MCF10A breast epithelial cells, parental and CDH1-null
Reagent: siRNA against human genes
Detection: 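Cell viability by CellTiter-Glo ATP luminescence, each line scaled to the mean of mock wells across plates, then CDH1-null over parental ratio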
Scale: CDH1-null / parental viability ratio: higher = CDH1-null cells survive relatively better than parental
In all, the deposit lists about 18,000 reagents; below is an unselected part. Further read-outs or replicates are left out here. Not given: the amount of reagent, the time to read-out.

What did the screen give for IL36RN (GeneID 26525)?
CDH1-null / parental viability ratio: 1.09

With PPP2R1B (GeneID 5519), what was measured?
CDH1-null / parental viability ratio: 1.36

How did the screen score TWIST1 (GeneID 7291)?
CDH1-null / parental viability ratio: 0.91

Which result is listed for TNKS2 (GeneID 80351)?
CDH1-null / parental viability ratio: 0.96

With MMAA (GeneID 166785), what does the deposit list?
CDH1-null / parental viability ratio: 1.1

How did the screen score FADS1 (GeneID 3992)?
CDH1-null / parental viability ratio: 0.95

With FRMPD1 (GeneID 22844), what does the deposit list?
CDH1-null / parental viability ratio: 1.21

For MST1 (GeneID 4485), how do the results read?
CDH1-null / parental viability ratio: 1.08

What is on record for AQR (GeneID 9716)?
CDH1-null / parental viability ratio: 1.07

How did the screen score PACC1 (GeneID 55248)?
CDH1-null / parental viability ratio: 0.95

With GJB6 (GeneID 10804), how do the results read?
CDH1-null / parental viability ratio: 1.02

With ATP12A (GeneID 479), what does the deposit list?
CDH1-null / parental viability ratio: 0.99

With DHX9 (GeneID 1660), how do the results read?
CDH1-null / parental viability ratio: 1.2

With FSTL3 (GeneID 10272), what was measured?
CDH1-null / parental viability ratio: 0.94

Which result is listed for CST5 (GeneID 1473)?
CDH1-null / parental viability ratio: 1.29

With FCRL2 (GeneID 79368), how do the results read?
CDH1-null / parental viability ratio: 0.68

What is on record for CDC6 (GeneID 990)?
CDH1-null / parental viability ratio: 1.27

What is on record for RNASEH2B (GeneID 79621)?
CDH1-null / parental viability ratio: 1

With RFX7 (GeneID 64864), what was measured?
CDH1-null / parental viability ratio: 0.82

Which result is listed for RUBCNL (GeneID 80183)?
CDH1-null / parental viability ratio: 0.94

With LPAR1 (GeneID 1902), how do the results read?
CDH1-null / parental viability ratio: 1.58

What is on record for RPL10A (GeneID 4736)?
CDH1-null / parental viability ratio: 1.27

What is on record for NEUROG3 (GeneID 50674)?
CDH1-null / parental viability ratio: 1.42

What did the screen give for HELB (GeneID 92797)?
CDH1-null / parental viability ratio: 1.02

How did the screen score PCGF1 (GeneID 84759)?
CDH1-null / parental viability ratio: 1

How did the screen score MTX2 (GeneID 10651)?
CDH1-null / parental viability ratio: 0.95

What is on record for F2RL2 (GeneID 2151)?
CDH1-null / parental viability ratio: 1.42

With ZNF600 (GeneID 162966), what was measured?
CDH1-null / parental viability ratio: 0.91

What did the screen give for TTPA (GeneID 7274)?
CDH1-null / parental viability ratio: 1.01

With UTF1 (GeneID 8433), how do the results read?
CDH1-null / parental viability ratio: 1.07

For ZNF84 (GeneID 7637), what was measured?
CDH1-null / parental viability ratio: 1.12

With LBH (GeneID 81606), what was measured?
CDH1-null / parental viability ratio: 0.64

What did the screen give for ZNF148 (GeneID 7707)?
CDH1-null / parental viability ratio: 0.85

How did the screen score C8A (GeneID 731)?
CDH1-null / parental viability ratio: 0.74

What is on record for ZNF212 (GeneID 7988)?
CDH1-null / parental viability ratio: 0.83

What did the screen give for LDLRAD1 (GeneID 388633)?
CDH1-null / parental viability ratio: 0.85

How did the screen score SLC25A16 (GeneID 8034)?
CDH1-null / parental viability ratio: 1.14

With ST14 (GeneID 6768), what does the deposit list?
CDH1-null / parental viability ratio: 1.09

What did the screen give for SLC25A2 (GeneID 83884)?
CDH1-null / parental viability ratio: 1

With SETMAR (GeneID 6419), what was measured?
CDH1-null / parental viability ratio: 1.02

How did the screen score GSPT2 (GeneID 23708)?
CDH1-null / parental viability ratio: 0.94

What is on record for HIVEP1 (GeneID 3096)?
CDH1-null / parental viability ratio: 0.8

What did the screen give for DRD5 (GeneID 1816)?
CDH1-null / parental viability ratio: 0.61

For SLC35A1 (GeneID 10559), what was measured?
CDH1-null / parental viability ratio: 1.08

Which result is listed for KLF5 (GeneID 688)?
CDH1-null / parental viability ratio: 1.12

Records above whose target name starts with F or f (5):
FADS1 (GeneID 3992) — CDH1-null / parental viability ratio: 0.95
FRMPD1 (GeneID 22844) — CDH1-null / parental viability ratio: 1.21
FSTL3 (GeneID 10272) — CDH1-null / parental viability ratio: 0.94
FCRL2 (GeneID 79368) — CDH1-null / parental viability ratio: 0.68
F2RL2 (GeneID 2151) — CDH1-null / parental viability ratio: 1.42
